The text below walks through data of PubChem BioAssay AID1487 (National Center for Advancing Translational Sciences (NCATS), 2009).

Molecules are shown by their SMILES. This is one part of the list. Shown are side measurements of this screen, not its main read-out; they come without a call. Most of these compounds were active or inconclusive in the main read-out, so they are no random draw. Words in brackets tell the shape of the fitted curve; partial curves, single points and poor fits give uncertain potencies.

The nature of the test: qHTS Assay for Modulators of Lamin A Splicing. The note with it: HeLa LMNA splicing GFP/RFP minigene ratio, 48 h. In a few lines: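 S3 HeLa stable clones carrying a lamin A-EGFP splicing minigene plus DsRed2 were seeded at 600 cells/well in Opti-MEM with 2% FBS, pin-dosed and incubated 48 h at 37°C. Acumen cytometry (488 nm) gave the GFP/RFP total-intensity ratio.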
(In general: In qHTS, concentration-response curves come from the screen itself.)

The mark [1] stands for this setting: measured here: GFP splicing reporter channel.
Setting [2] is: measured here: RFP viability control channel.

On to `CCN1C(=O)C2(C(C(=O)c3cc4ccccc4o3)=C(O)C(=O)N2CCCN(C)C)c2ccccc21` (configuration not stated), for which the AC50 by setting is: under setting [1], 0.794 µM [rising, partial curve, poor fit]; under setting [2], 0.126 µM [rising, full curve].

Consider `Cc1oc(-c2ccccc2)nc1CNS(=O)(=O)c1ccc(Cl)cc1`, for which the AC50 under setting [2] was 15.8 µM [rising, partial curve].

`CCOC(=O)c1ccccc1NC(=O)Cn1cnc2c1c(=O)n(C)c(=O)n2C`: the AC50 under setting [1] is 11.2 µM [rising, partial curve, poor fit].

Turning to `O=C(Nc1nnc(S(=O)(=O)N2CCCC2)s1)c1ccc(F)cc1`, the AC50 under setting [1] was 35.5 µM [falling, partial curve, poor fit].

As for `CN1c2ccc(Cl)cc2C(=O)NC1C1CC=CCC1` (configuration not stated), the AC50 by setting is: under setting [1], 0.251 µM [rising, full curve, poor fit]; under setting [2], 0.158 µM [rising, full curve, poor fit].

In the case of `O=[N+]([O-])c1cc(/C=N/O)ccc1N1CCCC1`, the AC50 under setting [1] is 11.2 µM [rising, partial curve, poor fit].

Consider `COCCNc1nnnc2c1sc1nc(N3CCOCC3)c3c(c12)CCCC3`, for which, under setting [2], the AC50 was 3.16 µM [falling, single point].

Take `Cc1cccc(CSC(Nc2ccc(F)cc2)=C(C#N)C#N)c1`: the AC50 was 12.6 µM [rising, partial curve, poor fit] under setting [1] and 11.2 µM [rising, partial curve] under setting [2].

On to `COC(=O)C1=C(C)NC(=O)/C1=C\c1cc(C)n(-c2cccc(C)c2)c1C`, for which the AC50 under setting [2] is 10 µM [rising, single point].

For `O=C1c2c(O)cccc2Cc2cccc(O)c21`, the AC50 under setting [1] is 0.631 µM [falling, single point].

For the compound `COc1ccc2[nH]c(=O)c3c(c2c1)OC(C)(C)C=C3`, the AC50 under setting [1] was 25.1 µM [rising, single point] and the AC50 under setting [2] is 35.5 µM [rising, single point].

Consider `CN(C)c1ccc(C(=O)Nc2nc3c(s2)CCCC3)cc1`, for which the AC50 reads like this: under setting [1], 11.2 µM [rising, partial curve, poor fit]; under setting [2], 11.2 µM [rising, partial curve, poor fit].

Regarding `CC1CCCN(C(=O)N2c3ccccc3Sc3ccccc32)C1` (configuration not stated), the AC50 under setting [2] was 15.8 µM [rising, single point].

For the compound `Nc1[nH]c(N=NC(=O)c2ccccc2O)c2ccccc12`, the AC50 is, setting by setting: under setting [1], 5.01 µM [falling, partial curve, poor fit]; under setting [2], 10 µM [falling, partial curve].

For `O=C(CCn1cccn1)Nc1cccc(C(F)(F)F)c1`, the AC50 was 0.0501 µM [falling, full curve, poor fit] under setting [1] and 0.1 µM [falling, full curve] under setting [2].

Turning to `O=C(NC(=S)Nc1ccc(N2CCN(C(=O)c3ccccc3)CC2)cc1)c1cccs1`, the AC50 is, setting by setting: under setting [1], 3.98 µM [falling, full curve]; under setting [2], 4.47 µM [falling, full curve, poor fit].

Regarding `O=C(CC(=O)Nc1ccc(Cl)c(Cl)c1)N/N=C/c1ccc(O)cc1`, under setting [2], the AC50 is 14.1 µM [rising, single point].

Regarding `Cc1csc(NC(=O)Nc2cccc(Cl)c2)n1`, the AC50 under setting [2] was 20 µM [rising, partial curve, poor fit].

On to `COc1ccc(CCNC(=O)CSc2nc3ccccc3nc2Cc2ccc(Cl)cc2)cc1OC`, for which the AC50 under setting [1] is 0.708 µM [rising, single point].

Turning to `Cc1ccc(Nc2cc(C)nc(-c3ccccc3O)n2)cc1`, the AC50 under setting [1] was 22.4 µM [rising, single point].

Turning to `CCC(Sc1nc2c(cnn2-c2ccc(Cl)cc2)c(=O)[nH]1)C(=O)OC` (configuration not stated), the AC50 under setting [2] was 0.0126 µM [falling, full curve, poor fit].

Take `O=C(c1ccccc1Sc1ccc([N+](=O)[O-])cc1)N1CCCCC1`: the AC50 under setting [2] was 35.5 µM [rising, single point].

In the case of `Cc1ccc(SCC(=O)NCCSCc2ccccc2)cc1`, the AC50 under setting [1] is 0.631 µM [rising, full curve, poor fit].

`COc1cccc(NC(=O)C(Cc2ccccc2)NC(=O)C2CCC(C)CC2)c1` (configuration not stated): the AC50 by setting is: under setting [1], 28.2 µM [rising, single point]; under setting [2], 31.6 µM [rising, single point].

For `O=C1C2=C(c3ccccc31)[N+](=O)[C@@H]1CCCC[C@@H]1N2[O-]`, the AC50 under setting [2] is 0.2 µM [falling, partial curve].

For `CCOC(=O)c1ccc(S(=O)(=O)NCC(C)(C)N2CCOCC2)cc1`, the AC50 under setting [1] was 0.00355 µM [falling, full curve, poor fit].

Regarding `Cc1cccc(S(=O)(=O)C(C#N)c2nc3ccccc3nc2N2CCOCC2)c1` (configuration not stated), the AC50 under setting [2] is 20 µM [rising, partial curve, poor fit].

As to `COc1ccc(C(=O)O/N=C(\N)c2ccccc2)c(OC)c1`, the AC50 runs as follows: under setting [1], 5.62 µM [rising, partial curve, poor fit]; under setting [2], 6.31 µM [rising, partial curve, poor fit].

As to `O=C(c1cc(=O)[nH]c2ccccc12)N1CCN(S(=O)(=O)c2ccc3ccccc3c2)CC1`, the AC50 under setting [2] is 0.141 µM [rising, full curve].

Take `CCS(=O)(=O)Nc1cccc(-c2nc3cccnc3s2)c1C`: under setting [2], the AC50 was 14.1 µM [rising, partial curve, poor fit].

On to `CC(C)C[C@@H](N)C(=O)O`, for which the AC50 runs as follows: under setting [1], 35.5 µM [falling, single point]; under setting [2], 0.501 µM [falling, partial curve].

Take `Cc1cc(SCC(=O)Nc2ccc(C(F)(F)F)cc2)nc(=O)[nH]1`: the AC50 was 0.282 µM [falling, full curve] under setting [1] and 10 µM [falling, partial curve, poor fit] under setting [2].

Take `N#Cc1c(NC(=O)CSc2nc3ccccc3s2)sc2c1CCCC2`: under setting [2], the AC50 is 15.8 µM [rising, partial curve, poor fit].

On to `O=C(CCCO)N/N=C/c1cc(Br)ccc1O`, for which the AC50 by setting is: under setting [1], 2.82 µM [rising, partial curve]; under setting [2], 3.98 µM [rising, partial curve].

As to `CCOCCCNC(=O)c1ccc2c(c1)ncn2C1CCCC1`, the AC50 under setting [2] was 10 µM [rising, partial curve].

Turning to `Cn1c(SCc2nc(-c3ccc(Cl)cc3)no2)nnc1-c1ccccc1`, the AC50 was 15.8 µM [rising, partial curve] under setting [1] and 15.8 µM [rising, single point] under setting [2].

For `COc1ccccc1NS(=O)(=O)c1cc(NC(=O)Nc2ccc(Cl)cc2Cl)ccc1N1CCCCC1`, the AC50 reads like this: under setting [1], 11.2 µM [rising, single point]; under setting [2], 11.2 µM [rising, partial curve].

Regarding `CCOc1ccc(Cc2c(Cl)nc(SC)nc2N(C)C)cc1`, the AC50 was 35.5 µM [falling, single point] under setting [1] and 2.82 µM [rising, single point] under setting [2].

`CC1=C/C(=N\OS(=O)(=O)c2ccccc2)C=CC1=O`: the AC50 runs as follows: under setting [1], 28.2 µM [falling, single point]; under setting [2], 35.5 µM [falling, single point].

Turning to `S=C(NCCc1ccccc1)Nc1ccc(Br)cn1`, the AC50 under setting [1] was 0.0126 µM [falling, full curve, poor fit].

As for `CCCn1cc(SCC(=O)Nc2ccc3c(c2)OCO3)c2ccccc21`, the AC50 under setting [2] was 11.2 µM [rising, partial curve].

Regarding `Cc1ccccc1-n1nnnc1SCCCC(=O)c1ccc(F)cc1`, the AC50 under setting [2] was 35.5 µM [rising, single point].

With `COc1cccc(C(=O)/C=C/c2ccc(OCC#N)c(OC)c2)c1`, the AC50 under setting [1] was 17.8 µM [falling, partial curve, poor fit] and the concentration at half-maximal activity (AC50) under setting [2] was 35.5 µM [falling, single point].

For `O=C(CN(Cc1cccs1)S(=O)(=O)c1ccc(S(=O)(=O)N2CCCCC2)cc1)Nc1ccccc1`, the AC50 under setting [2] was 0.00501 µM [falling, full curve, poor fit].

`COc1ccc(N(C(=O)Cn2nnc(-c3ccccc3F)n2)C(C(=O)NCC2CCCO2)c2ccc(Cl)cc2)cc1` (configuration not stated): the AC50 runs as follows: under setting [1], 7.08 µM [falling, partial curve]; under setting [2], 8.91 µM [falling, partial curve, poor fit].

In the case of `C#CC(N)CCC(=O)O` (configuration not stated), under setting [2], the AC50 is 5.62 µM [falling, single point].

On to `CC(NS(=O)(=O)c1ccccc1)C(=O)Nc1nccs1` (configuration not stated), for which the AC50 under setting [2] is 0.0794 µM [falling, partial curve, poor fit].

As for `Cc1ccc(Cn2cccc2/C=C2/C(=N)N3C=CSC3=NC2=O)cc1`, the AC50 under setting [2] is 0.355 µM [rising, full curve, poor fit].

Consider `Cc1ccc(NC(=O)CSc2nc3nccnc3c(=O)n2CCc2c[nH]c3ccccc23)c(C)c1`, for which the AC50 reads like this: under setting [1], 35.5 µM [rising, partial curve, poor fit]; under setting [2], 14.1 µM [rising, partial curve, poor fit].

Turning to `COc1ccccc1N1C(=O)C2CCC(c3ccccc3)CC2C1=O` (configuration not stated), the AC50 under setting [1] was 20 µM [rising, single point].

For the compound `O=C(NCCc1ccccc1)C(=O)Nc1ccc2c(c1)OCCO2`, the AC50 under setting [2] is 0.316 µM [falling, partial curve, poor fit].

In the case of `CCCCN(CC)S(=O)(=O)c1ccc(C(=O)Nc2nnc(-c3cccs3)o2)cc1`, the AC50 under setting [2] is 14.1 µM [rising, partial curve, poor fit].

In the case of `COc1ccc(CCNC(=O)COc2ccc(C)nc2[N+](=O)[O-])cc1`, the AC50 under setting [1] is 0.01 µM [falling, full curve, poor fit].

Consider `Cc1ccc(SCCC(=O)N/N=C/c2ccccc2O)cc1`, for which the AC50 under setting [2] is 11.2 µM [rising, partial curve].

Take `CC(C)(C)c1ccc(C(=O)N2CCC(=O)N(C(COCc3ccccc3)Cc3ccccc3)CC2)cc1` (configuration not stated): under setting [2], the AC50 is 15.8 µM [rising, single point].

For `CN(C)c1ccc(-c2nc(Nc3ccncc3)c3ccccc3n2)cc1`, the AC50 under setting [1] was 22.4 µM [falling, partial curve] and the AC50 under setting [2] is 35.5 µM [falling, single point].

For orientation: AC50 means the concentration giving half of the maximal activity seen.
